Laboratory results taken from the supplement of paper PMC11732987, “Enantioselective OTUD7B fragment discovery through chemoproteomics screening and high-throughput optimisation” (Communications Chemistry, 2025).
The list shows a part of the results. The data scatter; read single values as rough.

Chains of the proteins cited; added tags and fusions are not shown. Lines headed by an entry give the natural chain unless they say otherwise; changes in a name come on top. Residues count along the entry.
UniProt O15550, 3-24: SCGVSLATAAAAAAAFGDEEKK
UniProt Q9Y496, whole entry, looked up: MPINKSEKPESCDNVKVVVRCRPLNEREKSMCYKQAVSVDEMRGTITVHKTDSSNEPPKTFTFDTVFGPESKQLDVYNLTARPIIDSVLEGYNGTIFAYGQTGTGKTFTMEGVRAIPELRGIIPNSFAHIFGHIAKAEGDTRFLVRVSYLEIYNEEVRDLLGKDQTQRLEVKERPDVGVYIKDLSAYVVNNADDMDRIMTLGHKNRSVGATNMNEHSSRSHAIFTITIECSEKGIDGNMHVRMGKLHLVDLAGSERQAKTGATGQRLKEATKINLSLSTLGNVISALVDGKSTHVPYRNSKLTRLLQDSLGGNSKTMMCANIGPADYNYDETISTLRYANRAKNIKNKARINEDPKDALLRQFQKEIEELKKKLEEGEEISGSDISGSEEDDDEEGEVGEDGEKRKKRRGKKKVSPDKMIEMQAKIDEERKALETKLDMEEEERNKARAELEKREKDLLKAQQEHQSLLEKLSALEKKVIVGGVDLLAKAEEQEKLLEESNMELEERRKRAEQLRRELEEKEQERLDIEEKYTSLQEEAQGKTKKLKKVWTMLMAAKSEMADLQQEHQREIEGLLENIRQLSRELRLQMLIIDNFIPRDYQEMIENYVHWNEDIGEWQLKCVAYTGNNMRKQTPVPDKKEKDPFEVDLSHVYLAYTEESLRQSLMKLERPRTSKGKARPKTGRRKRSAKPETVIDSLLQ
UniProt Q96Q89: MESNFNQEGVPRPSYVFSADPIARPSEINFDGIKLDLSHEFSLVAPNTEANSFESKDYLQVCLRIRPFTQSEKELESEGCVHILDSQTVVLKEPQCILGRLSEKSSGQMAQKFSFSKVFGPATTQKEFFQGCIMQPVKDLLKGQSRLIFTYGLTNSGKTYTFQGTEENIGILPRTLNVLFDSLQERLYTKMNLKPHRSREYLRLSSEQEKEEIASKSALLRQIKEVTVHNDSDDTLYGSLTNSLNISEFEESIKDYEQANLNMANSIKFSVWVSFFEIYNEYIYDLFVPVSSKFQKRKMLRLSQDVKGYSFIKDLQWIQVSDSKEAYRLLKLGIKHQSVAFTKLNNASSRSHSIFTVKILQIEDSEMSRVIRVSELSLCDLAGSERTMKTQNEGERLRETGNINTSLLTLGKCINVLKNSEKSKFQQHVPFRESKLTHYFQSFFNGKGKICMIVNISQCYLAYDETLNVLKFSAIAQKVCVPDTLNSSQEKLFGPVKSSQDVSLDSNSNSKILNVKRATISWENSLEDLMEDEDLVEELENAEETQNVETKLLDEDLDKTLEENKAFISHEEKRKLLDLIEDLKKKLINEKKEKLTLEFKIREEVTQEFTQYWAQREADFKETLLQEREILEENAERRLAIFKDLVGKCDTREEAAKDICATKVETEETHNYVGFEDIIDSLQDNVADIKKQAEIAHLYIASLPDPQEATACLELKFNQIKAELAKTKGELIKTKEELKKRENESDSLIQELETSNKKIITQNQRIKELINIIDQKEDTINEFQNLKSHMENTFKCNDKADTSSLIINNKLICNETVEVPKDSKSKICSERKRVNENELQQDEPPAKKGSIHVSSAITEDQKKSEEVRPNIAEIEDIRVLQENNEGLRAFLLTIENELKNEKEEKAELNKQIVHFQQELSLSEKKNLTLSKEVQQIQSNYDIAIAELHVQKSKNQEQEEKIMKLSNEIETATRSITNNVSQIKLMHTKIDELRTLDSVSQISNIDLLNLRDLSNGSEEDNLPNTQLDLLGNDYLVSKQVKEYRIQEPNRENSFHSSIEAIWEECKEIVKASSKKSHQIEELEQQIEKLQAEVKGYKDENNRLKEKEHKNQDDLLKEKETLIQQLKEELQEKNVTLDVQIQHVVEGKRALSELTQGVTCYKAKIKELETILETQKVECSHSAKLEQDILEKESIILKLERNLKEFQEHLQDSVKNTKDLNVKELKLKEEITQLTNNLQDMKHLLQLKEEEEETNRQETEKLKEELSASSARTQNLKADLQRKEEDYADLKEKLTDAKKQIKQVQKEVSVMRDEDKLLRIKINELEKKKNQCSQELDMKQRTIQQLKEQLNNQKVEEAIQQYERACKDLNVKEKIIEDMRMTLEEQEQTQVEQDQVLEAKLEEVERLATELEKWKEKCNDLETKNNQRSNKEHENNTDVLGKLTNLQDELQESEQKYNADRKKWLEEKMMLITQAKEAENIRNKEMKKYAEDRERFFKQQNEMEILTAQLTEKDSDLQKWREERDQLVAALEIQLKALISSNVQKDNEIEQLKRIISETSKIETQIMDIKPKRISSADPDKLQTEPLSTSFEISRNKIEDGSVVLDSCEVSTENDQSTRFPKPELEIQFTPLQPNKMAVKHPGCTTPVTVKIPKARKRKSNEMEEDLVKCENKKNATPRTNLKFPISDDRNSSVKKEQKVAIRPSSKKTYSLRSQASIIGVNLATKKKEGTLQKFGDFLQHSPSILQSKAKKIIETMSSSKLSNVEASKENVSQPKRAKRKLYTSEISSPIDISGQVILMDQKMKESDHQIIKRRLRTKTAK
UniProt Q9HCI6: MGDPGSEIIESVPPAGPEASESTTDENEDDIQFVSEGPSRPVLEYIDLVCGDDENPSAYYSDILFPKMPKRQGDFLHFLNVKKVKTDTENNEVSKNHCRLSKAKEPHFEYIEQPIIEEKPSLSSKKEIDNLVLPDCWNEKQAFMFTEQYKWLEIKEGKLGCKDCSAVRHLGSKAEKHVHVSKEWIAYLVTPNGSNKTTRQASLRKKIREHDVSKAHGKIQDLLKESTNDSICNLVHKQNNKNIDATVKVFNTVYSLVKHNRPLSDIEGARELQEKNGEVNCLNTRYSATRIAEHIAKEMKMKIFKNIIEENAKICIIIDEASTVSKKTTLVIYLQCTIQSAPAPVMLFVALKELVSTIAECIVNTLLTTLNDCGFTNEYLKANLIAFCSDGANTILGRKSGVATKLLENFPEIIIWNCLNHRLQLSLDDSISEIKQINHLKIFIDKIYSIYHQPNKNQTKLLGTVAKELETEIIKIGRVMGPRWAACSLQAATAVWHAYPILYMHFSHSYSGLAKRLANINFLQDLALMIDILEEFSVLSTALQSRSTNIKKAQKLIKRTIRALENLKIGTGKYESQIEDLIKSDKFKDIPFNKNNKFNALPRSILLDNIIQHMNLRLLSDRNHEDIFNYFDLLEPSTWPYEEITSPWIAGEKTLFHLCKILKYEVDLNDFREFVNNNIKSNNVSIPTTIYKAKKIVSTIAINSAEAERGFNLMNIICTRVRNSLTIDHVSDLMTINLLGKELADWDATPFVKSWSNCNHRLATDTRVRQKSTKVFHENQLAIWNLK
UniProt O60333: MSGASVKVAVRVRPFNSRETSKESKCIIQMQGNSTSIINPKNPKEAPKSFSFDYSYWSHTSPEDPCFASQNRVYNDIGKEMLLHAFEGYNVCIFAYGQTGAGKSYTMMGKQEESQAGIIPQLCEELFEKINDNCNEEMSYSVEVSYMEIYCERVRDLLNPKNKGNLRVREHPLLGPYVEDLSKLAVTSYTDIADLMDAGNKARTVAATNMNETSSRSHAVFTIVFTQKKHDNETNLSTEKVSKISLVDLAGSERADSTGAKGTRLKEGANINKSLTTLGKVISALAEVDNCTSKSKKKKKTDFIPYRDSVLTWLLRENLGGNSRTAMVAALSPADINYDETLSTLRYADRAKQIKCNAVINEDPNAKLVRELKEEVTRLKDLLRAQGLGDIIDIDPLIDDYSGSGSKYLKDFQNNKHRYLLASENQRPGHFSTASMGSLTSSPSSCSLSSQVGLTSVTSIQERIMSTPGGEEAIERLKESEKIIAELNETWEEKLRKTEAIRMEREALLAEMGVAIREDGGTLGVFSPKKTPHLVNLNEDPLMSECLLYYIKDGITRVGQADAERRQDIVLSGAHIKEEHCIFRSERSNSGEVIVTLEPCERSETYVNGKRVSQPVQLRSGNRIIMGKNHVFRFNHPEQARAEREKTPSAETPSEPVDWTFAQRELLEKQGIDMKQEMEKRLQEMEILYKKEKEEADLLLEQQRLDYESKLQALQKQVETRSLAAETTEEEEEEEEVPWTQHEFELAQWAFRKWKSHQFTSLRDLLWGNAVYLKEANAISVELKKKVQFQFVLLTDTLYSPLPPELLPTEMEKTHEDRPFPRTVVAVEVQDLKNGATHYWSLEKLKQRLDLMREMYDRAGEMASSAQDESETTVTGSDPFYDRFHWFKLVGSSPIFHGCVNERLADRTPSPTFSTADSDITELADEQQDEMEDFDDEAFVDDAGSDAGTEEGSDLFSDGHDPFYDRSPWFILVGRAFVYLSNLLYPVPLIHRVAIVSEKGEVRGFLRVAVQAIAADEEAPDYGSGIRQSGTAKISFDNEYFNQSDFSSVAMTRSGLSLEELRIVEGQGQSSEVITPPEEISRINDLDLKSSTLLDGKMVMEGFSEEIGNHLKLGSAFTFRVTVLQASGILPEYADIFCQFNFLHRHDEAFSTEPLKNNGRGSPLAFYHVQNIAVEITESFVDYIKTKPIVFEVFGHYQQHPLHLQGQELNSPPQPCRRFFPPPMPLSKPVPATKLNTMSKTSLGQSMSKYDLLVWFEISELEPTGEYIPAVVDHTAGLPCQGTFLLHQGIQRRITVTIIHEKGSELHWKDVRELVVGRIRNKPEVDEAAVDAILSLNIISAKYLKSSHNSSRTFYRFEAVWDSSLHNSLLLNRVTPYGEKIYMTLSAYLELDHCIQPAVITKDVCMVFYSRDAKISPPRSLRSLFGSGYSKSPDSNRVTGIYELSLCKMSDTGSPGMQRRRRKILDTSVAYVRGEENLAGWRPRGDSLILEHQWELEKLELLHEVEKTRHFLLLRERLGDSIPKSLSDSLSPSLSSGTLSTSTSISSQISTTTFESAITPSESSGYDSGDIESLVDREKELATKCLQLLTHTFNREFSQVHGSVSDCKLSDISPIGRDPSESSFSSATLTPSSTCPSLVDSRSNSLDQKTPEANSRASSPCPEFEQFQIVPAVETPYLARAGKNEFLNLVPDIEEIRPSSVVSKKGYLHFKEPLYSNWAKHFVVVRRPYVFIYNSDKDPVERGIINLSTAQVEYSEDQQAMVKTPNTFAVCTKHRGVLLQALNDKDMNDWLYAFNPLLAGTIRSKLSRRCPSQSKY
UniProt P13612, whole entry, looked up: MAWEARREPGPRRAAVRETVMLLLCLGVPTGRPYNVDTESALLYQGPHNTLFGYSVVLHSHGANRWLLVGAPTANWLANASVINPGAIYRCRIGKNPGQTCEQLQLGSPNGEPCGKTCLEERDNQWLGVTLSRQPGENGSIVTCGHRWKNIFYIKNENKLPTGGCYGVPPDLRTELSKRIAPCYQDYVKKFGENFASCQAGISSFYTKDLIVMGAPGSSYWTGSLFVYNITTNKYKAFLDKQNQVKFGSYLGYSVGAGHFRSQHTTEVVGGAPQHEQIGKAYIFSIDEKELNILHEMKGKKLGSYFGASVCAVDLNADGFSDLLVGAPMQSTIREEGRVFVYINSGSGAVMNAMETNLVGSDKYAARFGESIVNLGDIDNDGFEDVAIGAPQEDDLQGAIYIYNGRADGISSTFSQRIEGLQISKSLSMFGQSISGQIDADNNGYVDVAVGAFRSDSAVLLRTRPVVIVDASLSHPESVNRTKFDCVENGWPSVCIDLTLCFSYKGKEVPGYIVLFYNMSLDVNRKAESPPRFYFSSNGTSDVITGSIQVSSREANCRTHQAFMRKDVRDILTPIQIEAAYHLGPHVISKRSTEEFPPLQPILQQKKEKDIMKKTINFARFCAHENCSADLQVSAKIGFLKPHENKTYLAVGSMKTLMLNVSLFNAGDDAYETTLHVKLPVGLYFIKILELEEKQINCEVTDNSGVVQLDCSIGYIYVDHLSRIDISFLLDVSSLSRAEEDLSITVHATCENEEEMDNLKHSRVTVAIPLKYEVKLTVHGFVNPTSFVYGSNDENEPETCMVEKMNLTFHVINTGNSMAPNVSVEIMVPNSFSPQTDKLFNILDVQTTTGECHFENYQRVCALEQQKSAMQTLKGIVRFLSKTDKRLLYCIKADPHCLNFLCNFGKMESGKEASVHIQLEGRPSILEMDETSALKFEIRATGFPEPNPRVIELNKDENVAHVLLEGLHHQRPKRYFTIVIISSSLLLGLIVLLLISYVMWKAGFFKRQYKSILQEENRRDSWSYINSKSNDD
UniProt Q9NXV2: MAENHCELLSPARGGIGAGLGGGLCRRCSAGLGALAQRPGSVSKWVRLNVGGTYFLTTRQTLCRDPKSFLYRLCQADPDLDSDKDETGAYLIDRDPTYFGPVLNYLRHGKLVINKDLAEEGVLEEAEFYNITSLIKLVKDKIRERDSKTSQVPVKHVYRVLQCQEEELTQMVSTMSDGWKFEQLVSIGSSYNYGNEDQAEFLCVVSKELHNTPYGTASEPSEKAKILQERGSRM

Key:
[1] = compound: ClCC(=O)N[C@@H]1CCCc2ccccc12; assay: log2 mean competition ratio of IA-DTB cysteine labelling (DMSO/compound) (log2 ratio); higher = stronger cysteine engagement by compound; conditions: treatment time: 4 h, cell line lysate: HEK293T
Protocol: (§1)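 IA-DTB competitive cysteine chemoproteomics in HEK293T RIPA lysate. Lysates were treated with compound 29 or 30 at 50 or 200 µM for 4 h, then IA-DTB (500 µM, 1 h), trypsin-digested, NeutrAvidin-enriched and analysed by diaPASEF. Competition ratio = intensity DMSO / intensity compound (n=4 treated, n=64 DMSO); binding: mean log2 CR ≥ 1 and p ≤ 0.05 plus QC filters. Target is the cysteine site.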

[2] = compound: ClCC(=O)N[C@H]1CCCc2ccccc12; assay: as above; conditions: treatment time: 4 h, cell line lysate: HEK293T
Protocol: as §1

Target	log2 mean competition ratio ([1]; 50 µM)	log2 mean competition ratio ([1]; 200 µM)	log2 mean competition ratio ([2]; 50 µM)	log2 mean competition ratio ([2]; 200 µM)
KIF17 C872	-0.00356	0.0204	0.477	0.341
KDM4A C560 (UniProt O75164)	-0.0733	0.0879	0.188	0.0794
KIF21B C203 (UniProt O75037)	-0.341	0.601	-0.936	0.229
JUP C49 (UniProt P14923)	-0.0286	0.393	-0.102	0.319
ITPR3 C1511 (UniProt Q14573)	0.0654	0.282	-0.394	0.296
ITPRID2 C703 (UniProt P28290)	0.448	0.256	0.389	0.256
KDM8 C99 (UniProt Q8N371)	0.426	-0.0697	0.767	0.362
KDM3B C295 (UniProt Q7LBC6)	-0.267	0.142	0.000135	0.152
KDM6A C4 (UniProt O15550)	0.136	-0.116	-0.1	-0.215
ITPR2 C1649 (UniProt Q14571)	-0.137	0.126	-0.0992	0.139
KDM3A C953 (UniProt Q9Y4C1)	-0.0411	0.217	-0.0714	0.333
KIF3A C621 (UniProt Q9Y496)	0.275	-0.00151	0.026	0.0139
KHNYN C46 (UniProt O15037)	0.589	0.329	-0.489	0.112
ITPRID2 C673 (UniProt P28290)	0.0114	-0.421	0.225	-0.0966
KAT6A C1187	-0.0113	-0.144	0.211	-0.237
KIF4A C977 (UniProt O95239)	0.242	-0.222	0.333	-0.105
KIF1A C1508	0.0654	0.0634	0.516	0.174
KIAA0232 C1077	-0.0364	0.438	-0.719	0.149
KANK1 C317 (UniProt Q14678)	0.0434	0.0972	0.183	0.0698
KIAA1107 C986	-0.314	0.112	-0.102	0.324
ITPR3 C215 (UniProt Q14573)	0.0107	-0.142	0.0535	-0.105
KIF11 C723 (UniProt P52732)	-0.21	0.0194	0.00907	0.0125
KIAA1107 C1071	0.158	-0.164	0.025	-0.0485
ITPR1 C1406 (UniProt Q14643)	0.0147	-0.117	-0.0339	-0.0162
KIF1C C975 (UniProt O43896)	0.658	0.281	0.611	0.189

Target	log2 mean competition ratio ([1]; 50 µM)	log2 mean competition ratio ([1]; 200 µM)	log2 mean competition ratio ([2]; 50 µM)	log2 mean competition ratio ([2]; 200 µM)
KHNYN C221 (UniProt O15037)	0.215	0.121	0.194	0.178
KIAA1107 C252	-0.0541	-0.0145	-0.0496	0.291
KHSRP C176	-0.127	0.0559	0.264	0.278
KIF24 C669	0.187	-0.0531	-0.105	0.017
KIF20B C379 (UniProt Q96Q89)	-0.196	-0.559	-0.303	-0.234
KIAA1586 C232 (UniProt Q9HCI6)	-0.114	0.112	0.0374	0.137
ITPR2 C292 (UniProt Q14571)	0.298	0.436	-0.0809	0.276
KIF21A C204	-0.106	0.132	-0.208	0.0797
KIF20B C1158 (UniProt Q96Q89)	-0.0276	0.0594	-0.144	0.0548
IRS4 C545	-0.149	0.696	-0.307	0.535
KIF1B C1771 (UniProt O60333)	0.0789	0.0907	-0.0389	0.202
KIAA0100 C1055 (UniProt Q14667)	-0.19	0.262	-0.216	0.226
KDM4C C14 (UniProt Q9H3R0)	-0.114	-0.0445	-0.0878	0.167
KDM5A C794 (UniProt P29375)	-0.266	-0.401	-0.517	-0.105
KIF21A C1437	-0.339	-0.197	0.091	-0.0909
KIF20B C813 (UniProt Q96Q89)	-0.183	-0.199	-0.277	0.0637
JARID2 C522 (UniProt Q92833)	-0.202	0.207	0.0578	0.491
ITGA4 C183 (UniProt P13612)	-0.0169	-0.158	-0.496	-0.0143
KDM1B C331 (UniProt Q8NB78)	0.176	-0.174	0.237	-0.235
ITM2C C96 (UniProt Q9NQX7)	-0.0691	-0.186	0.12	-0.181
KANSL3 C161 (UniProt Q9P2N6)	-0.00826	-0.0668	0.117	-0.0925
KIF18A C710	-0.0693	-0.0527	-0.0626	0.124
KIF14 C508 (UniProt Q15058)	-0.0491	-0.2	0.227	-0.22
KBTBD2 C524 (UniProt Q8IY47)	-0.214	-0.14	0.106	-0.288
KCTD5 C28 (UniProt Q9NXV2)	0.497	-0.257	0.378	-0.116

Whole records, quoted from the list. Values in the order: log2 mean competition ratio ([1]; 50 µM)	log2 mean competition ratio ([1]; 200 µM)	log2 mean competition ratio ([2]; 50 µM)	log2 mean competition ratio ([2]; 200 µM)
KIAA0100 C1055 (UniProt Q14667) in the list: -0.19	0.262	-0.216	0.226
KDM8 C99 (UniProt Q8N371) in the list: 0.426	-0.0697	0.767	0.362
KIF21B C203 (UniProt O75037) in the list: -0.341	0.601	-0.936	0.229
KANSL3 C161 (UniProt Q9P2N6) in the list: -0.00826	-0.0668	0.117	-0.0925
